Test results from patent US20210122824A1.
These are yes or no findings as the source states them, for the method shown. Some results given as binding are weak or reduced against the parent protein; the word gives no strength.

Target: rhesus PD-L1-Fc fusion protein (Sino Biological cat #90251-C02H) (rhesus) (UniProt F6PJN1)
Assay: SPR (Biacore T200), PD-L1-Fc immobilized, IgG in solution

B1: TY21421 (antibody, V domains shown)
VH: EVQLVESGGGLVQPGGSLRLSCAASGYSISSGYYWGWIRQAPGKGLEWIGIIYPSGGGTNYAQKFQGRVTISRDNSKNTLYLQLNSLRAEDTAVYYCARGGGLGFDYWGQGTLVTVSS
VL: DIQLTQSPSSLSASVGDRVTITCRASQSIPSFLNWYQQKPGKAPKLLIYAASSLQSGVPSRFSGSGSGTDFTLTISSLQPEDFATYYCQHYISWPRQFTFGQGTKVEIKR
binding: binds
